Laboratory results from PubChem BioAssay AID493014 (National Center for Advancing Translational Sciences (NCATS), 2011).
The whole screen tested about 340,000 compounds, of which about 170 (0.05%) were called active. The inconclusive results got no clear call from the source; some entries with a clear call stand among them for comparison. Calls come from the whole dose curve; as a rule, active = well fitted inhibition curve with a large enough effect in the signal ratio, with a control signal flat (not every such curve was filed as active); inconclusive = small, poorly fitted or top-dose-only effect, or effect the other way, or a change in a side signal; inactive = flat fitted curve, though single readings scatter; the % refers to the signal ratio. Potencies of inconclusive entries are doubtful fits and often do not repeat.

Assay: qHTS Assay to Find Inhibitors of Chronic Active B-Cell Receptor Signaling;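 for activity change, negative = inhibition: plate controls were basal doxycycline-induced cells for no effect and cells given 10 µM MG132 for full effect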
Details: ABC-DLBCL IkBa-CBG/CBR reporter, luminescence ratio (green luciferase fused to IkBa over red control in TMD8 lymphoma cells), 4 h; activity change, negative = inhibition: at 46.1 µM (top of the series)
How it was run: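 TMD8 human ABC-DLBCL cells with doxycycline-inducible IκBα–green luciferase fusion and unfused red luciferase, in 0.5% FBS medium; compounds up to 46 uM, 4 h at 37C. Green/red luminescence ratio, filter-overlap corrected, fitted to concentration-response curves.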
Potency is the fitted concentration of half-maximal effect.

SMILES | Potency | activity change, negative = inhibition
Cc1ccc(OCCNC(=O)CCNS(=O)(=O)c2ccc3ccccc3c2)cc1 | inconclusive: 32.6 µM [falling, partial curve, poor fit] | 
CN(C(=O)CSc1nc2ccccc2o1)C1CCCCC1 |  | inconclusive: 13.2%
N/C(=N\OC(=O)CCC1CCCCC1)c1cccnc1 |  | inconclusive: 10.2%
O=C(c1ccc(C#CC2(O)CCCCC2)cc1)N1CCN(Cc2ccccc2)CC1 |  | inconclusive: -13.7%
Cc1cccc2sc(NC(=O)C3CCCO3)nc12 (stereo unspecified) | inconclusive: 0.651 µM [rising, partial curve] | 
Cc1ccccc1NC(=O)Nc1cnccn1 |  | inconclusive: -15.7%
NC(=O)C1CCN(C(=O)c2ccc(OCC(=O)Nc3cccc(C(F)(F)F)c3)cc2)CC1 |  | inconclusive: 4.57%
Nc1c(N(Cc2ccccc2)C(=O)COc2cccc(Cl)c2)c(=O)[nH]c(=O)n1Cc1ccccc1 |  | inactive: 1.91%
CCN1C(=NCc2cc(OC)c(OC)c(OC)c2)N[C@@H](c2cccc(C(F)(F)F)c2)C(C(=O)OC)=C1C |  | inconclusive: 7.44%
CCOc1ccc(-n2cc(C(=O)Nc3ccc(Cl)cn3)c3cc(OC)c(OC)cc3c2=O)cc1 |  | inactive: 3.56%
Cc1ccc(C)c(C(=O)OCC(=O)Nc2cccc(S(=O)(=O)NC3=NCCCCC3)c2)c1 | inconclusive: 35.5 µM [falling, single point] | 
C=CCC[C@@H](Cc1ccc(F)cc1)C(=O)OC[C@H](Cc1c[nH]c2ccccc12)NC(=O)[C@@H](CC=C)CC(=O)N(CCO)Cc1ccccc1 |  | inconclusive: -4.53%
CCOCC(=O)Nc1c(C(=O)N2CCN(c3ncccn3)CC2)oc2ccccc12 |  | inactive: -10.7%
COc1cc(CC(=O)OCC(=O)N2CCN(C(=O)c3ccco3)CC2)cc(OC)c1OC |  | inconclusive: 1.95%
Cc1ccc(/C=C/C(=O)c2cc(Br)ccc2OC(=O)c2ccco2)cc1 | inconclusive: 3.66 µM [falling, single point] | 
OCCCNc1nc(-c2ccccc2)c2cc(Br)ccc2n1 |  | inconclusive: 5.25%
COc1ccc(OC)c(NC(=O)c2cnc(Nc3ccccc3OC)c3ccccc23)c1 |  | inactive: -5.37%
CSc1nsc2nc(=O)c(/C=C3\C(C)=Nc4ccc(C)cc43)c(N)n12 | inconclusive: 3.16 µM [rising, partial curve] | 
CN(N)c1nc(-c2ccccc2)cc(-c2ccccc2)n1 |  | inactive: -1.35%
COc1ccc(Nc2nc3[nH]c(=O)cc(O)c3s2)cc1 |  | inactive: -0.906%
COc1ccc(S(=O)(=O)NC(N)=NCCc2ccc(OC)c(OC)c2)cc1 |  | inconclusive: 46%
COC(=O)CCCC(=O)NC1CCCc2c1cnn2-c1ccc(F)cc1F (stereo unspecified) |  | inconclusive: 2.71%
CCCCNC(=S)Nc1ccc(-c2nc3ccc(C)cc3s2)cc1 |  | inactive: 3.27%
N#Cc1c(-c2ccc(Cl)cc2)ccnc1N1CCOCC1 |  | inconclusive: -0.288%
CCCOc1cccc(C(=O)Nc2cccc(NC(=O)c3ccco3)c2)c1 | inconclusive: 14.1 µM [falling, partial curve] | 
Cc1ccc(/C(CSc2nccn2-c2ncc(C(F)(F)F)cc2Cl)=N\O)cc1 | inconclusive: 13 µM [rising, partial curve] | 

For reference, part of the list above.
SMILES | Potency | activity change, negative = inhibition
COc1cc(CC(=O)OCC(=O)N2CCN(C(=O)c3ccco3)CC2)cc(OC)c1OC |  | inconclusive: 1.95%
Cc1ccc(/C=C/C(=O)c2cc(Br)ccc2OC(=O)c2ccco2)cc1 | inconclusive: 3.66 µM [falling, single point] | 

Following part

SMILES | Potency | activity change, negative = inhibition
Cc1ccc(NCc2nc3ccccc3n2CCOc2ccccc2)cc1 | inconclusive: 23.1 µM [falling, partial curve, poor fit] | 
Clc1ccc(-c2nnc(NC3=NCCCCC3)o2)cc1 |  | inconclusive: 404%
C=CCN1C(=O)C2(/C(=C(\O)c3ccc4c(c3)OCCO4)C(=O)C(=O)N2CCCOC)c2ccccc21 (stereo unspecified) |  | inconclusive: 13.5%
COc1ccccc1N1CCN(C2CCN(S(=O)(=O)c3ccc(C)cc3)CC2)CC1 |  | inactive: -2.22%
COc1ccc(CCN2C(=O)CSC2c2ccc(F)cc2)cc1 (stereo unspecified) |  | inactive: -5.49%
O=C(NN=C1CCCC1)c1[nH]c2ccc(Cl)cc2c1-c1ccccc1 | inconclusive: 2.82 µM [falling, full curve] | 
COc1ccc2c(CC(=O)Nc3ccccc3OC)coc2c1 | inconclusive: 25.1 µM [falling, partial curve, poor fit] | 
CCOc1cc(CNCC(C)C)c(Cl)cc1OCC(=O)Nc1ccccc1 |  | inconclusive: 1.96%
CCC(C(=O)NCc1ccco1)N(C(=O)CNS(=O)(=O)c1ccccc1)c1ccccc1C (stereo unspecified) |  | inconclusive: 3.36%
CCOc1cc(C2/C(=C(/O)c3ccc(OC(C)C)cc3)C(=O)C(=O)N2CCCOC)ccc1O (stereo unspecified) |  | inactive: 19.2%
O=C(O)CNc1nc(-c2ccccc2)nc2c1oc1ccccc12 |  | inconclusive: 18.5%
O=C(OCCCN=C1NS(=O)(=O)c2ccccc21)c1cccs1 |  | inconclusive: 3.49%
Cc1cccc(-n2c(O)c(/C=N/NC(=O)c3ccccc3Cl)c3ccccc3c2=O)n1 | inconclusive: 18.4 µM [falling, partial curve] | 
Cc1cc(C)c(S(=O)(=O)NCC(c2cccs2)S(=O)(=O)c2ccccc2)c(C)c1 (stereo unspecified) | inconclusive: 11.2 µM [rising, single point] | 
O=C(CNC(=O)c1ccccc1)N/N=C/c1ccc([N+](=O)[O-])o1 |  | inconclusive: -2%
CCCCNC(=O)Nc1ccnn1C1CCCCC1 |  | inactive: 0.528%
O=C1OCCN1C(=O)[C@H]1[C@H](c2ccccc2)C(c2ccccc2)=NN1c1ccccc1 |  | inactive: -1.66%
O=C(c1ccco1)N1CCN(S(=O)(=O)c2cc(Cl)ccc2Cl)CC1 |  | inactive: 0.632%
ClC(Cl)(Cl)c1nc2ccccc2n2nncc12 |  | inconclusive: 198% [cytotoxic]
CCCc1noc2c1/C(=N\O)CC(c1ccccc1)C2 (stereo unspecified) | inconclusive: 7.31 µM [rising, partial curve, poor fit] | 
O=C1CCCC2=C1C(c1ccc(O)cc1)c1c(ccc3ccccc13)N2 (stereo unspecified) |  | inactive: -9.53%
CN(C)C(CNC(C(=O)Nc1ccc(F)cc1)c1ccccc1)c1ccccc1 (stereo unspecified) |  | inactive: -5.83%
O=C(Cc1ccc(Br)cc1)N1CCCC1 |  | inactive: -1.87%
Cc1c(O)ccc2c(CN3CCN(C/C=C/c4ccccc4)CC3)cc(=O)oc12 |  | inactive: 0.987%
COCCN1C=C(C(=O)OC)C(c2ccc(Cl)cc2)C(C(=O)OC)=C1 |  | inconclusive: -14.3%
